Results: patent CN117736324A
No constants are given. Whether binding was seen depends on the method and setting. Some binding calls cover weakened binding; strength is not graded here.

Molecular target: 食蟹猴Siglec-15-His (cynomolgus monkey)
Test: ELISA, cynomolgus Siglec-15-His coated

Row | Binder | binding
1 | 抗Siglec-15单克隆抗体HA-I (人源化抗体分子, human IgG1/Ck) (antibody, V domains shown) VH: QVQLVQSGAEVKKPGASVKVSCKASGYTFTDYNMFWVRQAPGQRLEWIGYIYPDNGGTGYNQNFKSKATLTVDNSASTAYMELSSLRSEDTAVYYCARSEYDYFDYWGQGTLVTVSS VL: DIVLTQSPSSLSASVGDRVTITCRASQDISNYLNWYQQKPGKAVKLLIYYTSRLHSGVPSRFSGSGSGTDYTFTISSLQPEDIATYFCQQGNTLPLTFGQGTKVELKR | binds
2 | 人源化抗体分子HA-II (human IgG1/Ck) (antibody, V domains shown) VH: QVQLVQSGAEVKKPGASVKVSCKASGYTFTDYNMFWVRQAPGQRLEWIGYIYPDNGGTGYNQNFKSKATLTVDNSASTAYMELSSLRSEDTAVYYCARSEYDYFDYWGQGTLVTVSS VL: DIQLTQSPSSLSASVGDRVTITCRASQDISNYLNWYQQKPGKAPKLLIYYTSRLHSGVPSRFSGSGSGTDYTFTISSLQPEDIATYFCQQGNTLPLTFGQGTKVELKR | binds
